# Screening data, single-dose tests

Values are the deposited “Percent Effect”, in %. The record does not define 0% and 100%; most values in the screen are far below 50% and negative numbers occur (in some assays of this library far below -100). Compounds were drawn at random from those tested, without regard to their results.

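Whole-parasite assay of Trypanosoma brucei over 72 hours; the read-out is not stated. Concentration: 30 µM. Direction is inferred from retests: higher values go with stronger inhibition. Values scatter widely below zero; nearly all retest evidence comes from the higher of the two concentrations used. Size under these conditions: about 64,000 compounds, about 940 of them at 50% or above in at least one test.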

| compound | Percent Effect |
|---|---|
| `COCCN1CC(c2nc(CSC)no2)CCC1=O` (stereo unspecified) | 2.58% |
| `CC(=O)Nc1ccc2nc(CN(C)Cc3snnc3C)ccc2c1` | 6.904% |
| `CCc1ccc(CCC(=O)N2CCOCC2c2ncon2)cc1` (stereo unspecified) | -1.557% |
| `[H][C@@]12C[C@@H](Oc3ccccc3)C[C@]1([H])CN(C(=O)c1cnn(CC)c1)C2` | 7.287% |
| `Cc1ccc(N2CCCC(NCc3ccc(-n4ccnc4)cc3)C2)nn1` (stereo unspecified) | -7.956% |
| `CC(C)Nc1ccc2nc(C3CCNCC3)nn2c1` | -33.61% |
| `Cc1nc(-c2ccsc2)sc1C(=O)N1CCn2c(C)nnc2C1` | 5.898% |
| `O=C(O)C(F)(F)F.[H][C@@]12CCN(CC3CCOCC3)[C@@]1([H])CCN2C(=O)c1ccc(F)cc1` | -22.84% |
| `CC(Cn1ccnc1)NS(=O)(=O)c1ccc(C#N)c(Cl)c1` (stereo unspecified) | -16.01% |
| `CCC(Oc1ccc(N(C)S(C)(=O)=O)cc1)C(N)=O` (stereo unspecified) | -7.725% |
| `Cc1ccccc1N1CCN(C(=O)c2ccc[nH]2)C(C)C1` (stereo unspecified) | 53.58% |
| `Cc1cn(-c2ccccc2)nc1NS(=O)(=O)c1cc(C(=O)O)ccc1Cl` | -79.52% |
| `Cc1c(NC(=O)C(C)N(C)C)c(=O)n(-c2ccccc2)n1C` (stereo unspecified) | -23.32% |
| `CCN(c1ccc(C(=O)N2CCCCC2)cc1)S(=O)(=O)CC` | -7.603% |
| `COc1ccc(N2CCC(C(=O)/N=c3/[nH]ccs3)CC2)nn1` | 35.88% |
| `Cn1c(C2CC2)nc2c1CCN(CCS(=O)(=O)c1ccccc1)C2` | -16.26% |
| `O=C(Nc1cccc(F)c1)NC1CCN(Cc2ccncc2)CC1` | -25.17% |
| `CC(C)CN1CCc2[nH]cnc2C12CCN(C(=O)c1ccnn1C)CC2` | -1.254% |
| `O=C(O)C(F)(F)F.[H][C@@]12CCCO[C@]1([H])[C@@H](OCC(=O)N(C)C)CN2Cc1ccc(F)cc1` | 15.22% |
| `CN(Cc1cnn(C)c1)C(CO)c1cccc(Br)c1` (stereo unspecified) | -13.1% |
| `CCS(=O)(=O)N(C)C1CCN(C(=O)c2ccc(Cl)cc2)CC1` | -28.74% |
| `COc1ccc(CC(=O)Nc2c(C)nc(N3CCOCC3)nc2C)cc1` | -1.165% |
| `CN1C(=O)C2(CC(=O)Nc3c2cnn3C(C)(C)C)c2ccccc21` (stereo unspecified) | -33.23% |
| `CN(C)C(=O)c1cccc(C[S+]([O-])CC(=O)NC2CCCC2)c1` (stereo unspecified) | -2.832% |
| `COCC(=O)N1CCC2(COCc3c(C)nc(N(C)C)nc32)C1` (stereo unspecified) | -12.06% |
| `Cc1c(C2CC2)n[nH]c1NC(=O)C1CCCN(C(=O)NCC(C)C)C1` (stereo unspecified) | -51.6% |
| `C[C@@H]1CN(C(=O)CCCn2nnc(-c3ccc(F)cc3)n2)C[C@]1(C)O` | -7.436% |
| `COc1cc(CNC(=O)c2cc(Cl)ccc2F)ccn1` | -38.53% |
| `Cc1ccccc1OCC1CCCN(C(=O)CN(C)C2CCNCC2)C1` (stereo unspecified) | 59.87% |
| `CNc1cc(N2CCCC2CNCc2ccc(Cl)o2)ncn1` (stereo unspecified) | 0.1801% |
| `c1csc(COC[C@H]2CCC[C@]23CN(Cc2ccoc2)CCO3)n1` | -94.81% |
| `COC(=O)CN(C(=O)c1ccco1)c1cccc(F)c1` | -36.78% |
| `O=C1NCCc2c1sc1ccc(C(=O)N3CC[C@H](CO)[C@H](O)C3)cc21` | -9.506% |
| `Cc1ccc(C(=O)NCC(C)Cn2cccn2)c(=O)[nH]1` (stereo unspecified) | -12.09% |
| `CCCSc1nn(CCCN(C)C)c2nc3sc(C)c(CC)c3c(=O)n12` | -15.41% |
| `CC(NC(=O)Nc1cnn(CC(N)=O)c1)c1ccc(Cl)s1` (stereo unspecified) | 3.414% |
| `CNC(=O)c1cc(NC(=O)Nc2cnn(CC(C)C)c2)ccc1F` | 28.96% |
| `CS(=O)(=O)N1CC(c2nc[nH]n2)c2cc(C(=O)NC3CC3)ccc21` (stereo unspecified) | -0.1818% |
| `CCn1c(O)c(C(C)=O)c2cc(C)ccc21` | -28.51% |
| `c1cncc(Cc2nnc3n2CCN(CC2CCOC2)CC3)c1` (stereo unspecified) | 4.938% |
| `[H][C@]12CCN(C(=O)c3cc(C)on3)CC[C@@]1([H])S(=O)(=O)N(CCOC)C2` | -17.72% |
| `Cc1nnc(CN(C)C2CCCN(Cc3noc(C4CC4)n3)C2)o1` (stereo unspecified) | -21.32% |
| `CSc1ccc(CN(CCO)Cc2nccn2C)cc1` | -12.91% |
| `CN1CCOCC12CCN(Cc1ccoc1)CC2.O=C(O)C(F)(F)F.O=C(O)C(F)(F)F` | -44.43% |
| `CC(=O)N(c1ccc(C)cc1)c1nc(CN2CCCCC2C)cs1` (stereo unspecified) | -23.02% |
| `COC(=O)N1CCCCC1C(=O)N1CCC(c2ccncc2)CC1` (stereo unspecified) | -17.34% |
| `CN1CCN(Cc2cnc(S(=O)(=O)CC3CC3)n2CC2CCCO2)CC1` (stereo unspecified) | -20.37% |
| `NC(=O)CN(C(=O)Cc1cccc(C(F)(F)F)c1)C1CCCC1` | 8.522% |
| `CCN1CCOCC2(CCCN(C(=O)c3cccc(O)c3)C2)C1` (stereo unspecified) | -57.84% |
| `O=C(O)C1CCCN(C(=O)CCn2ccc3c(Cl)cccc32)C1` (stereo unspecified) | -10.54% |
| `COCC(=O)NC1CC2(CCN(CCN(C)C)CC2)c2ccccc21` (stereo unspecified) | -94.16% |
| `CN(C(=O)Cc1ccn(C)c1)C1CCCN(C2Cc3ccccc3C2)C1` (stereo unspecified) | -29.1% |
| `Cn1cc(C(=O)NCCc2csc(-c3ccccc3)n2)ccc1=O` | -1.207% |
| `Cc1nn(CCO)cc1CN1CCCN(C2CCCC2)CC1` | -68.29% |
| `CC(C)c1n[nH]c(C2CN(Cc3ccno3)CCO2)n1` (stereo unspecified) | -0.1233% |
| `CCCC(C)CS(=O)(=O)NCc1cccnc1OC` (stereo unspecified) | -6.645% |
| `CN(Cc1cnn(C)c1)C(=O)c1ccc(=O)n(C)n1` | 28.75% |

Data taken from ChEMBL document CHEMBL3988442, “University of Dundee, Small-Polar-MMV Screening Library” (2021).